# According to patent US20050026873A1, “Type-I methionyl aminopeptidases inhibitors in antibacterial targeting” (priority 2003, published 2005):
# Sequences of proteins named here, by UniProt entry; tags and fusion partners are left off.
# UniProt P0AE18, whole entry C70A: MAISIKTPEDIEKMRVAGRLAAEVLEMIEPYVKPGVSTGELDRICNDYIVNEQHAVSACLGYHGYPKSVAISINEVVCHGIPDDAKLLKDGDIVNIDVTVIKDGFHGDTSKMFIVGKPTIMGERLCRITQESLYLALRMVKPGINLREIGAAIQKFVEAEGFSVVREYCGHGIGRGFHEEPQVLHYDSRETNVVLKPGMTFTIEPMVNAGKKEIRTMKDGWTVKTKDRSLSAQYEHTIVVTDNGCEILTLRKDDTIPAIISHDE
# UniProt P0AE18, whole entry C59A: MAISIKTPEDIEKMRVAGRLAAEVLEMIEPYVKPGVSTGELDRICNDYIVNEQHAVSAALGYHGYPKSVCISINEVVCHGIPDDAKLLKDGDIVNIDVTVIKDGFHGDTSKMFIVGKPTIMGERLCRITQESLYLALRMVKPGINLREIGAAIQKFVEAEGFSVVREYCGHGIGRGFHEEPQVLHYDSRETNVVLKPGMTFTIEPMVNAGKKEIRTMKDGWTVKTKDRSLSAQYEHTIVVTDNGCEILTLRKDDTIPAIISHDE
# Part of at least one peptide drawing is inferred or uncertain, most often the ends. Peptide text beside a SMILES is read from it.
# Tests used:
# [1] = target: T1, C70A EcMetAP (Escherichia coli, UniProt P0AE18, C70A); test: Kinetic constants towards MGMM, C70A mutant; format: biochemical, E. coli; conditions: 30° C., pH 7.5
# T1 construct: made in house
# Protocol: (§1) Since at least one surface accessible cysteine residue, in addition to Cys59 and Cys70, exists in EcMetAP-I, reaction of DTNB with other residues cannot be ruled out. In order to circumvent this problem, both the C59A and C70A EcMetAP-I mutant enzymes were prepared and purified using the QuikChange Site-directed Mutagenesis Kit (Stratagene) and each mutation was verified by nucleotide sequencing. Both mutant enzymes bind one equivalent of Co(II) or Fe(II) tightly, based on ICP-AES analysis, which is identical to wild-type EcMetAP, and their kinetic parameters are listed below. […] Moreover, the Km values for both Co(II)— and Fe(II)-loaded EcMetAP C59A and C70A double and quadruple, respectively.
# [2] = target: T2, C59A EcMetAP (Escherichia coli, UniProt P0AE18, C59A); test: Kinetic constants towards MGMM, C59A mutant; format: biochemical, E. coli; conditions: 30° C., pH 7.5
# T2 construct: made in house
# Protocol: as §1
compound,measurement,setting,value
CSCC[C@H](NC(=O)[C@H](CCSC)NC(=O)CNC(=O)[C@@H](N)CCSC)C(=O)O [MGMM] (H-MGMM-OH),Vmax,[1]; Co(II)-loaded,1.4 ± 0.5 U/mg
same,kcat,[1]; Co(II)-loaded,0.7 s⁻¹
same,Vmax,[1]; Fe(II)-loaded,1.7 ± 0.5 U/mg
same,kcat,[1]; Fe(II)-loaded,0.9 s⁻¹
same,Vmax,[2]; Co(II)-loaded,24 ± 3 U/mg
same,kcat,[2]; Co(II)-loaded,12 s⁻¹
same,Vmax,[2]; Fe(II)-loaded,69 ± 2 U/mg
same,kcat,[2]; Fe(II)-loaded,38 s⁻¹
